Data as given in patent publication US6906175B2, “Production of adenine nucleotide translocator (ANT), novel ANT ligands and screening assays therefor” (priority 1998, dated 2005).
Some entries share one result that the patent states for a list of compounds. For at least one compound, name, drawing or mass did not settle the structure.

Molecular target: ANT
Assay: ANT ligand competition binding, activity reported as Ki
Details: calculated from IC50 by the Cheng and Prusoff equation

SMILES	Ki
C=C1[C@@H]2CCC3[C@@](CC[C@@H]4[C@H](C(=O)O)C[C@@H](O[C@@H]5O[C@H](CO)[C@@H](OS(=O)(=O)[O-])[C@H](OS(=O)(=O)[O-])[C@H]5OC(=O)CC(C)C)C[C@@]34C)(C2)[C@@H]1O.[K+].[K+] (some centres unmarked) [ATR, atractyloside]	< 1 µM
CC(C)CC(=O)OC1C(OC2CC(C(=O)O)C3CCC45CC(CCC4C3(C)C2)C(C)C5O)OC(CO)C(OS(=O)(=O)O)C1OS(=O)(=O)O (centres unmarked) [compound 5, Dihydroatractyloside]	< 100 µM
